Earlier results, collected in US20210393580A1, “PROCYANIDINS FOR THE TREATMENT OF ENDOTHELIAL DYSFUNCTION TRIGGERED BY COVID-19” (priority 2020, published 2021).
Some of these results come from one statement about several compounds together. At least one compound was matched to its structure with a doubt left.

Protein sequences, listed by entry. Tags and fused reporters are not part of them.
UniProt P59595, whole entry, looked up: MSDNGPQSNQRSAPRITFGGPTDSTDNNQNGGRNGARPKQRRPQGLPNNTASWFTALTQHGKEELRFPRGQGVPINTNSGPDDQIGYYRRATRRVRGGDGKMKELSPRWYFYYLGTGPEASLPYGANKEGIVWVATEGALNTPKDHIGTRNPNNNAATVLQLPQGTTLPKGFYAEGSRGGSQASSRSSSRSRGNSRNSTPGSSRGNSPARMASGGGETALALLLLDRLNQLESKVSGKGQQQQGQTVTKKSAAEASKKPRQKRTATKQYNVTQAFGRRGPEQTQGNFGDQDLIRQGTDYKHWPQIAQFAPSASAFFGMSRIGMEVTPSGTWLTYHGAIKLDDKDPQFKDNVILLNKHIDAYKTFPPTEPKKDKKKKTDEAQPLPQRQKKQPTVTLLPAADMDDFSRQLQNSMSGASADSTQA

Biological target: SARS-CoV N protein (Severe acute respiratory syndrome coronavirus, UniProt P59595)

Row | Compound | inhibition activity on nanoparticle-based RNA oligonucleotide biochip system
1 | O=C(O[C@@H]1Cc2c(O)cc(O)cc2O[C@H]1c1ccc(O)c(O)c1)c1cc(O)c(O)c(O)c1 [(−)-catechin gallate] | more than 40%
2 | (−)-gallocatechin gallate | more than 40%
